This is one part of the list. Most values lie at the level of the controls, where differences are scatter.

Protein sequences, listed by entry. Tags and fused reporters are not part of them. Lines headed by an entry give the natural chain unless they say otherwise; changes in a name come on top.
UniProt Q499X9: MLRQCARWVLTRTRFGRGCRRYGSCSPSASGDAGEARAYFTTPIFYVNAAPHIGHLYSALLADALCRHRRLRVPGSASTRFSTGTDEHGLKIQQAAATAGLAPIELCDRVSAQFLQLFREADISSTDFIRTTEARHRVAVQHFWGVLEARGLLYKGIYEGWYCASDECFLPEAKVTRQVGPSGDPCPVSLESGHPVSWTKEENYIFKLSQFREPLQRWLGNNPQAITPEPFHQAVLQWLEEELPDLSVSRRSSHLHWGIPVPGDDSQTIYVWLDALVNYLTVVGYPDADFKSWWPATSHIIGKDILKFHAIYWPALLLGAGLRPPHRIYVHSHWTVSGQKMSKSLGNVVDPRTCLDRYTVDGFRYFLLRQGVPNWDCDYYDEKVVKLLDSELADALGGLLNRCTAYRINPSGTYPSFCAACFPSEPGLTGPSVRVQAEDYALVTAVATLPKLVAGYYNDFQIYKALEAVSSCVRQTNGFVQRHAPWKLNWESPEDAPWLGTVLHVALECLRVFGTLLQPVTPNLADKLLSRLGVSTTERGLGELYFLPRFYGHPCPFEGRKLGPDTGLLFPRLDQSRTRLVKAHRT
UniProt Q3UMB9: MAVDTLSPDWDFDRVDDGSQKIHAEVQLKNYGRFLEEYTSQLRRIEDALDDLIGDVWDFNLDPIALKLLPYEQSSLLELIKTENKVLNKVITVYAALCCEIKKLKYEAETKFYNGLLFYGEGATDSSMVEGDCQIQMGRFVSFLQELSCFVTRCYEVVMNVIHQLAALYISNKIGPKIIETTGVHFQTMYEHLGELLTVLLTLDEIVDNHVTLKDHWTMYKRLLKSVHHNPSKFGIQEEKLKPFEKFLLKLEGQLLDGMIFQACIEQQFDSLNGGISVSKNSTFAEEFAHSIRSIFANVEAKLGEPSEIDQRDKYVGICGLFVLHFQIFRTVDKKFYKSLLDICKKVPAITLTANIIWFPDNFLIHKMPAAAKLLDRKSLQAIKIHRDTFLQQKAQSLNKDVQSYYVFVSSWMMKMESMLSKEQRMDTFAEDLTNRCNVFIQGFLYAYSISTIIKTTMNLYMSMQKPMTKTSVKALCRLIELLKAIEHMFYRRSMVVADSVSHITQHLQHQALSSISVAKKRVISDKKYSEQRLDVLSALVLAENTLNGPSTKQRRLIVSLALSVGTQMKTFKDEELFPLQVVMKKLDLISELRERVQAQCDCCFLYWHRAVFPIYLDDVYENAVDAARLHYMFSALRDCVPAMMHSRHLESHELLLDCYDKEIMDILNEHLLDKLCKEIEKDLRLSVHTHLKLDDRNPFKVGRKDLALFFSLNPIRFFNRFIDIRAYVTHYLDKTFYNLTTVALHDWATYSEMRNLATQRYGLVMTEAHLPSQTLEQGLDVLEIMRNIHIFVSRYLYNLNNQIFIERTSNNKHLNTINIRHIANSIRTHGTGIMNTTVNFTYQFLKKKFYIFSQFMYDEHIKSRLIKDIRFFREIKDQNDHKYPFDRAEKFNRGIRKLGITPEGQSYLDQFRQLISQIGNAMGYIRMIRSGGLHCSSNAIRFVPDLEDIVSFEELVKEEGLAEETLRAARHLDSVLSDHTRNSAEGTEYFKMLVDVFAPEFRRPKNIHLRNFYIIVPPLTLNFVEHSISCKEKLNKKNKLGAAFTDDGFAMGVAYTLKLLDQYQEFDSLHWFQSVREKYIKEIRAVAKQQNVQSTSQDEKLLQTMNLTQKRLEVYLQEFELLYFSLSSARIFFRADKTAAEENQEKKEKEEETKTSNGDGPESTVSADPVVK
UniProt Q3UIU2, whole entry: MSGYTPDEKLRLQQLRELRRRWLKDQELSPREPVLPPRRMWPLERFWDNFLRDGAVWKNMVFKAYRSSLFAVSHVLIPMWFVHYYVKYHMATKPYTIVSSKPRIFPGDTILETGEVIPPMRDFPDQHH
UniProt Q3U9N9: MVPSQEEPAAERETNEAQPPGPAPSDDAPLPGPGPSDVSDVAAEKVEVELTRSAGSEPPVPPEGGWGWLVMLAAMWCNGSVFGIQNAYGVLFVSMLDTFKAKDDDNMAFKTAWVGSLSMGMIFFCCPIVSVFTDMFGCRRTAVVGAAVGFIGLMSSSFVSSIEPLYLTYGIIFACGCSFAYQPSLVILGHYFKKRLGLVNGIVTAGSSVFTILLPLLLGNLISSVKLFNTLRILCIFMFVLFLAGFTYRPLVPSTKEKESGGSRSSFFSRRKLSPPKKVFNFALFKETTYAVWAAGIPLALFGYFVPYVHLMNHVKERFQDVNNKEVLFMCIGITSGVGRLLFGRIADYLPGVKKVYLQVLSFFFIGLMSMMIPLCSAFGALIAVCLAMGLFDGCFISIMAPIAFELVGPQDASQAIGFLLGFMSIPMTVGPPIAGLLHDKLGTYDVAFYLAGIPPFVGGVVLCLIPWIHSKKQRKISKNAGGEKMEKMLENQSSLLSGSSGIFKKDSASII
UniProt Q56A08: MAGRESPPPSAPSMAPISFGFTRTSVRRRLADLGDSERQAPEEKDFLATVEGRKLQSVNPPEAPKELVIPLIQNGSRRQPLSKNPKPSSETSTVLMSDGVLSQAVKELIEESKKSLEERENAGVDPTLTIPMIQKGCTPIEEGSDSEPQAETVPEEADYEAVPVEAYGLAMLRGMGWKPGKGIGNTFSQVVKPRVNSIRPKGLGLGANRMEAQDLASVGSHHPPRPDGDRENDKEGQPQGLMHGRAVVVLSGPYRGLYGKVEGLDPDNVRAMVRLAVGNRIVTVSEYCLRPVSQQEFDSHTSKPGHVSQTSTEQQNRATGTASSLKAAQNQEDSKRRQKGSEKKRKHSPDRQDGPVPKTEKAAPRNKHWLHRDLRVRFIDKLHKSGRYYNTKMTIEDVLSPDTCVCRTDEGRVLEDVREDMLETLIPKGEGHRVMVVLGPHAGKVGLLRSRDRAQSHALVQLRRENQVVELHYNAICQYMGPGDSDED
UniProt Q3U5Q7: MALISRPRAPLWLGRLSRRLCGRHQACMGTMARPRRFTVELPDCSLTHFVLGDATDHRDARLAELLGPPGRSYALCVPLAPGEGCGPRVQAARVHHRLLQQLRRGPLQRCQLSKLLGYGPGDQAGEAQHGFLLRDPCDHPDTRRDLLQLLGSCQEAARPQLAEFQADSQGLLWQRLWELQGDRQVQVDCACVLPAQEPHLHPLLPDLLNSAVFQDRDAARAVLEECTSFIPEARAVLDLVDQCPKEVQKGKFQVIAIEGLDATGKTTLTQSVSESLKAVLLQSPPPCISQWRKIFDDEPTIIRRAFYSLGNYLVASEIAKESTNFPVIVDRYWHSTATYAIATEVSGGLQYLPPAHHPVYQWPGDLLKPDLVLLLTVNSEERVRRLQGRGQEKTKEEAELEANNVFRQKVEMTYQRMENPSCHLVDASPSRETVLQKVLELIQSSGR
UniProt Q3UH60: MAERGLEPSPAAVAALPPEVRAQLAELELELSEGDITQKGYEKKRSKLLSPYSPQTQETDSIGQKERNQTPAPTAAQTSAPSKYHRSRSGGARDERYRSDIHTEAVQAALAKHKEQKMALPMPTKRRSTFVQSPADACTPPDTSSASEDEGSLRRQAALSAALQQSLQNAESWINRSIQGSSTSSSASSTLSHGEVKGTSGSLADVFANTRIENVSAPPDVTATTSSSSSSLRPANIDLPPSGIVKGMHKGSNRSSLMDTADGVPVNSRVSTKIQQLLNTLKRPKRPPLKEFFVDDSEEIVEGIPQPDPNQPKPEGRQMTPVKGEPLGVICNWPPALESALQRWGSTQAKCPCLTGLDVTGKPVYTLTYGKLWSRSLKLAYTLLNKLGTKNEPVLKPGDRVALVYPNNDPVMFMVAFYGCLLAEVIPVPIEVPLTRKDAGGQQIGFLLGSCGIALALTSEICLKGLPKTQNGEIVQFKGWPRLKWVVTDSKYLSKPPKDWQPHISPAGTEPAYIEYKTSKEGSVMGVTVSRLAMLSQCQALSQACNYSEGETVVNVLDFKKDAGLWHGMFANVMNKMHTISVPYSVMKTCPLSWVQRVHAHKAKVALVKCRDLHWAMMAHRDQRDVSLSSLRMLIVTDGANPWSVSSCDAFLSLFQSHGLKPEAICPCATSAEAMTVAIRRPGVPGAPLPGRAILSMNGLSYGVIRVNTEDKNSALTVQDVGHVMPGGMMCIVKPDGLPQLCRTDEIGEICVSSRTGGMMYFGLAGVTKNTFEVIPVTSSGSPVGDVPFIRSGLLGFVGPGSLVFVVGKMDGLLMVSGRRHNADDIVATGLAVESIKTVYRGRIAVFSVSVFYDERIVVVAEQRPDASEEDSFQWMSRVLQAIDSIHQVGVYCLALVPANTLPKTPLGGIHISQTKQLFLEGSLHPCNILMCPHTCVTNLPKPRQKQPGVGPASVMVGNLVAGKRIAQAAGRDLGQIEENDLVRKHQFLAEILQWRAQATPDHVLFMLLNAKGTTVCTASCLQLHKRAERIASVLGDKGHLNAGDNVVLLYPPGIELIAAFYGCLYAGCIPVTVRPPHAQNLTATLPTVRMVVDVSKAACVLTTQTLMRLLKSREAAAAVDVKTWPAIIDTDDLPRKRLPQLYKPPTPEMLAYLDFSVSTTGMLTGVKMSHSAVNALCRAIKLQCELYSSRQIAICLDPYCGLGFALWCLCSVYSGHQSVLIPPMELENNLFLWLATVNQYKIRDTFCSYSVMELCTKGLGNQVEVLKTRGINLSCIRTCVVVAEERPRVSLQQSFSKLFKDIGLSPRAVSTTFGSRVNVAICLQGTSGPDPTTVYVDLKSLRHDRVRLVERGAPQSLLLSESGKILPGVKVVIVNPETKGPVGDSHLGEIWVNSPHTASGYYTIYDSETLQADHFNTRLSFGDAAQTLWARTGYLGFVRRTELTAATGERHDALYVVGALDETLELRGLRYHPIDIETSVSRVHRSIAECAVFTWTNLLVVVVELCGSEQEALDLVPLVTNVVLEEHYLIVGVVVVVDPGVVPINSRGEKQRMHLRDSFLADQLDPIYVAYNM
UniProt Q4G0F8, whole entry: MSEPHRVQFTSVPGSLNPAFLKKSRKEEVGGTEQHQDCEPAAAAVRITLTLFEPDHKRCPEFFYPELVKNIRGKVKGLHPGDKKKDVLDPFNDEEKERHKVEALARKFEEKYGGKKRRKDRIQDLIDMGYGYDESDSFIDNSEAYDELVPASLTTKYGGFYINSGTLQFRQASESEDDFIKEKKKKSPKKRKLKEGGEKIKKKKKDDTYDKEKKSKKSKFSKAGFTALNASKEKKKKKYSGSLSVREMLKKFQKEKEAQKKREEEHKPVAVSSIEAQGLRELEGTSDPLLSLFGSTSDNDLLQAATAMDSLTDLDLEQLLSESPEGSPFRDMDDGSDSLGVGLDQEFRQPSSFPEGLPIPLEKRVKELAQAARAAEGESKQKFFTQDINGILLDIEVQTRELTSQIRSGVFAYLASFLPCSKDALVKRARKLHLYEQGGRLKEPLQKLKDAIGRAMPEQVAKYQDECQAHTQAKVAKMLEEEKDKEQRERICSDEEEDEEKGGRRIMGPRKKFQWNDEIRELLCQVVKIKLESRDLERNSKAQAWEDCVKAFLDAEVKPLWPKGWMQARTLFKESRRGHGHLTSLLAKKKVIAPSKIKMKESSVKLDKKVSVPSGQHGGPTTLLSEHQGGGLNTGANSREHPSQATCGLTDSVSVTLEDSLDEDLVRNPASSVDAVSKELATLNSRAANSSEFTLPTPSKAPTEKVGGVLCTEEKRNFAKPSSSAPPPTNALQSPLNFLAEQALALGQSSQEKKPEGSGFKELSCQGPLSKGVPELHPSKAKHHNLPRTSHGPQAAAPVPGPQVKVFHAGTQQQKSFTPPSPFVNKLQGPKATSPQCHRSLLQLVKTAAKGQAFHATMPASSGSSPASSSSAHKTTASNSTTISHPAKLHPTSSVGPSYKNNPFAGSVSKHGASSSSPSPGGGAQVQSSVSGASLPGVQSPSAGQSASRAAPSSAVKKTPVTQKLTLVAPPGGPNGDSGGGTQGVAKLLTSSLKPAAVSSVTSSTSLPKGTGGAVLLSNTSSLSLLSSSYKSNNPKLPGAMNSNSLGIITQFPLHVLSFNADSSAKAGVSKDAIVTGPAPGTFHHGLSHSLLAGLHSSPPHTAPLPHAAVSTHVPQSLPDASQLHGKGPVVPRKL
UniProt Q3UZP0: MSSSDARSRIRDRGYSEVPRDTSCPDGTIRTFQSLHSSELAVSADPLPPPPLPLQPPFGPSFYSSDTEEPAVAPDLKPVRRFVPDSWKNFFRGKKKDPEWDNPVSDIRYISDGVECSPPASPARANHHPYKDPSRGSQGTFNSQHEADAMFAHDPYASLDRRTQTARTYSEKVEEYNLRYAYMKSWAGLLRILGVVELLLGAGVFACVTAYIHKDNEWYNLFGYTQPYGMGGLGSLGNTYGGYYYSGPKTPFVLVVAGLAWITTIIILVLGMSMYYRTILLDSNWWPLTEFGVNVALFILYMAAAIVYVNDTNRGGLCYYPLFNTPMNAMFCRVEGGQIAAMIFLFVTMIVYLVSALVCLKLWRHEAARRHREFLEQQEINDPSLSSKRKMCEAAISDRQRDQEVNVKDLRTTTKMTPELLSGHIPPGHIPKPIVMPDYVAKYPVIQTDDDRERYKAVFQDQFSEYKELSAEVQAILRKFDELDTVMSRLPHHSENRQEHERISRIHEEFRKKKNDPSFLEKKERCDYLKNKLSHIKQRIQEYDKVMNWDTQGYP

Compound in the assay: CN[C@@H]1C[C@H]2O[C@@](C)([C@@H]1OC)n1c3ccccc3c3c4c(c5c6ccccc6n2c5c31)C(=O)NC4 [staurosporine]
In words: log2 fold change of tryptic peptide abundance, ligand vs vehicle (limited proteolysis) (log2 ratio); higher = more trypsin-susceptible (destabilized). Conditions: ligand concentration: 20 uM; sample: mouse liver crude lysate; replicate design: treated separately.
“UniProt Q499X9 (peptide sequence: EADISSTDFIR, peptide start residue: 120)”: the log2 fold change is -0.639. The same measure for “UniProt Q3U8K7 (peptide sequence: GAHSQGDSLPCTYTTR, peptide start residue: 525)”: -0.523. The value for “UniProt Q3UMR0 (peptide sequence: GLPERPVSR, peptide start residue: 1000)” was 0.786; that for “UniProt Q4U4S6 (peptide sequence: SKGNYDEGFGHK, peptide start residue: 446)” was -0.139.

Turning to “UniProt Q3UMB9 (peptide sequence: EIKDQNDHKYPFDR, peptide start residue: 875)”, the log2 fold change turned out to be 0.169.

In the case of “UniProt Q3UVL4 (peptide sequence: LSHHLQGLK, peptide start residue: 407)”, the log2 fold change is -0.35. The value for “UniProt Q4VBE8 (peptide sequence: DLFDFSTR, peptide start residue: 417)” was -0.118; that for “UniProt Q5DU25 (peptide sequence: DVAQCHLHHENPALGR, peptide start residue: 153)” was 0.207. The value for “UniProt Q570Y9 (peptide sequence: RPVTSEELLTPGAPYAR, peptide start residue: 312)” was -0.237. As to “UniProt Q3V0C5 (peptide sequence: ALCKDCVVER, peptide start residue: 551)”, the log2 fold change was -0.598. The value for “UniProt Q5DU09 (peptide sequence: ETLTCEKCPR, peptide start residue: 242)” was -0.758; that for “UniProt Q3UIU2 (peptide sequence: SGYTPDEKLR, peptide start residue: 2)” was -0.153. The value for “UniProt Q3URQ7 (peptide sequence: LRTGLFNK, peptide start residue: 90)” was -0.413. The same measure for “UniProt Q3UHR0 (peptide sequence: ASLASCAGGMLGR, peptide start residue: 295)”: 0.0153. As for “UniProt Q3UHC2 (peptide sequence: LLVLTHGADPENYAVR, peptide start residue: 171)”, the log2 fold change came to 0.564. “UniProt Q3UMU9 (peptide sequence: NTDVVATLKK, peptide start residue: 512)”: the log2 fold change stood at 0.329. The value for “UniProt Q3URD3 (peptide sequence: AKESDLSDTLSPSKEK, peptide start residue: 459)” was -0.196. For “UniProt Q3U9N9 (peptide sequence: MLENQSSLLSGSSGIFKK, peptide start residue: 489)”, the log2 fold change is -0.13. The same measure for “UniProt Q56A08 (peptide sequence: DFLATVEGR, peptide start residue: 45)”: 0.438; for “UniProt Q3UHD3 (peptide sequence: QELLEKAYR, peptide start residue: 337)”: -0.0163; for “UniProt Q4VGL6 (peptide sequence: GADQQQPPQHSK, peptide start residue: 402)”: 0.515. The same measure for “UniProt Q3UEN2 (peptide sequence: KLWSPGLSLRAEGTGGIPGK, peptide start residue: 871)”: 0.288. In the case of “UniProt Q3U5Q7 (peptide sequence: IFDDEPTIIRR, peptide start residue: 294)”, the log2 fold change is -0.413.

Take “UniProt Q3UH60 (peptide sequence: IQQLLNTLKRPK, peptide start residue: 274)”: the log2 fold change is -0.441. The same measure for “UniProt Q3UH93 (peptide sequence: EQDSLGLESHEYHIK, peptide start residue: 1202)”: 0.885; for “UniProt Q4G0F8 (peptide sequence: ELLCQVVK, peptide start residue: 521)”: 0.345. The same measure for “UniProt Q3V4B5 (peptide sequence: SLKYPYVAVMLK, peptide start residue: 39)”: 0.084; for “UniProt Q3U7U3 (peptide sequence: FDPVDPLPGPHSLLPGR, peptide start residue: 483)”: 0.0775. For “UniProt Q4JIM5 (peptide sequence: ISADKISK, peptide start residue: 1079)”, the log2 fold change was -0.826. The same measure for “UniProt Q3UHA3 (peptide sequence: LCLLSQVLK, peptide start residue: 1628)”: 0.238; for “UniProt Q3UZP0 (peptide sequence: ANHHPYKDPSR, peptide start residue: 125)”: -0.67.
